These are yes or no findings as the source states them, for the method shown. In cells and extracts the contact can be indirect. A yes stands for co-enrichment or nearness to the bait. Other partners may have been found. Where a sequence is shown, tags or fusion partners need not be part of it.
Target: T1, Flag-tagged ANGPTL4 (ANGPTL4-Flag) (human) (UniProt Q9BY76)
T1 sequence: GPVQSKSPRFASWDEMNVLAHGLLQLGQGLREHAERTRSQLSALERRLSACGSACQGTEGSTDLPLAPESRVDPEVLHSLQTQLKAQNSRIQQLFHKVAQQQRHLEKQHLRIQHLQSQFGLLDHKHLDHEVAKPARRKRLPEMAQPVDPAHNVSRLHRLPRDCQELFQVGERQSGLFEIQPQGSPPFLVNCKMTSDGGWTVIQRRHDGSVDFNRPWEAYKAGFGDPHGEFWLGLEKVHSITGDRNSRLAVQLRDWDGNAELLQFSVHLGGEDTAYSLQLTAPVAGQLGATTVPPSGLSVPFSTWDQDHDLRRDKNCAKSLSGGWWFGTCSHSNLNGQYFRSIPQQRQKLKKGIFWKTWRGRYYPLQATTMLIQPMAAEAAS
Experiment: affinity purification with mass spectrometry; AGS cells expressing ANGPTL4-Flag, IP with anti-Flag Abs, in-gel digestion, LC-MS/MS (Q Exactive HF)

The chains behind the UniProt entries cited, without tags or fusion partners. Residues count along the entry.
UniProt P06756, residues 31-1048: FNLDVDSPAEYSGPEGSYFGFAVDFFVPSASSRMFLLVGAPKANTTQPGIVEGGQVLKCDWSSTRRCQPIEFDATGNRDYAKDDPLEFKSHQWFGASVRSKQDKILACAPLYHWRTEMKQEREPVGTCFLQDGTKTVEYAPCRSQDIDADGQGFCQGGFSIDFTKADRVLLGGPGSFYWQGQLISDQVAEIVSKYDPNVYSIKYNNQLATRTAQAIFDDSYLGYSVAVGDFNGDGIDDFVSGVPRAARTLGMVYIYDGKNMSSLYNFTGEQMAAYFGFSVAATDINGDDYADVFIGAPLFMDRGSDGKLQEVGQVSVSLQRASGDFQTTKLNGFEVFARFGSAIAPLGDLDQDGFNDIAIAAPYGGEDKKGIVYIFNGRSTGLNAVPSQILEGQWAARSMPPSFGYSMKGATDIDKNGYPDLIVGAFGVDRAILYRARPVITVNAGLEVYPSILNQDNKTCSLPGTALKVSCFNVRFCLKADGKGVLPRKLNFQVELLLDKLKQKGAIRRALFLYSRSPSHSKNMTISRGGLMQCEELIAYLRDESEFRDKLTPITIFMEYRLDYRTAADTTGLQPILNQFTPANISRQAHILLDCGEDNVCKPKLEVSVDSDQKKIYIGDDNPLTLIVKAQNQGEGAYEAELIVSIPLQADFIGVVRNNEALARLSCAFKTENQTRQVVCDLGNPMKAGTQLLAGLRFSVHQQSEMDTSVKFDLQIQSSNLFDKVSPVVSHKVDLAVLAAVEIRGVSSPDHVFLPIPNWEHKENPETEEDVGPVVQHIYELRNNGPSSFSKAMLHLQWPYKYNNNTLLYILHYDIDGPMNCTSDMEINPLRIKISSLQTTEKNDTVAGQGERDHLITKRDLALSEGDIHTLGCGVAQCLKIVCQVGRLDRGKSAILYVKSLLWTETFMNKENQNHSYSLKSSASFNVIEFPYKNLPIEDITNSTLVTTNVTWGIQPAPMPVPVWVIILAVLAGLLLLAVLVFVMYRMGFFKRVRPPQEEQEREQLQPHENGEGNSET

Substance: integrin αV (ITGAV) (from UniProt P06756 31-1048) (receptor)
- binding: binds

— article PMC11254415
